# In patent US4446325A, “1,4-Dihydropyridine compounds” (priority 1981, dated 1984):
# At least one read-out could not be matched to a standard name with certainty.
# System: enucleated heart of guinea-pig
# Test: Effect on heart systole, enucleated heart of guinea-pig (Langendorf method)
# Procedure: The effects of the compounds of this invention on the heat systole and the perfusion volume in the coronary artery in enucleated heart of guinea-pig were determined in accordance with the Langendorf method.
compound,measurement,setting,value
"COC(=O)C1=C(C)NC(C)=C(C(=O)OC)C1c1ccccc1[N+](=O)[O-] [Compound H, Dimethyl 2,6-dimethyl-4-(2-nitrophenyl)-1,4-dihydropyridine-3,5-dicarboxylate, reference compound]",Effects on Heart Systole: Changes in Systole,dose 1 × 10^-6 g,-56.6%
same,Effects on Heart Systole: Changes in Systole,dose 1 × 10^-7 g,-19.8%
